The other results are listed elsewhere or left out. Most entries show no effect beyond the scatter of the controls.

The chains behind the UniProt entries cited, without tags or fusion partners. Where a name states a change or a piece, a line headed by the entry shows the natural chain unless it says otherwise.
UniProt Q96L73: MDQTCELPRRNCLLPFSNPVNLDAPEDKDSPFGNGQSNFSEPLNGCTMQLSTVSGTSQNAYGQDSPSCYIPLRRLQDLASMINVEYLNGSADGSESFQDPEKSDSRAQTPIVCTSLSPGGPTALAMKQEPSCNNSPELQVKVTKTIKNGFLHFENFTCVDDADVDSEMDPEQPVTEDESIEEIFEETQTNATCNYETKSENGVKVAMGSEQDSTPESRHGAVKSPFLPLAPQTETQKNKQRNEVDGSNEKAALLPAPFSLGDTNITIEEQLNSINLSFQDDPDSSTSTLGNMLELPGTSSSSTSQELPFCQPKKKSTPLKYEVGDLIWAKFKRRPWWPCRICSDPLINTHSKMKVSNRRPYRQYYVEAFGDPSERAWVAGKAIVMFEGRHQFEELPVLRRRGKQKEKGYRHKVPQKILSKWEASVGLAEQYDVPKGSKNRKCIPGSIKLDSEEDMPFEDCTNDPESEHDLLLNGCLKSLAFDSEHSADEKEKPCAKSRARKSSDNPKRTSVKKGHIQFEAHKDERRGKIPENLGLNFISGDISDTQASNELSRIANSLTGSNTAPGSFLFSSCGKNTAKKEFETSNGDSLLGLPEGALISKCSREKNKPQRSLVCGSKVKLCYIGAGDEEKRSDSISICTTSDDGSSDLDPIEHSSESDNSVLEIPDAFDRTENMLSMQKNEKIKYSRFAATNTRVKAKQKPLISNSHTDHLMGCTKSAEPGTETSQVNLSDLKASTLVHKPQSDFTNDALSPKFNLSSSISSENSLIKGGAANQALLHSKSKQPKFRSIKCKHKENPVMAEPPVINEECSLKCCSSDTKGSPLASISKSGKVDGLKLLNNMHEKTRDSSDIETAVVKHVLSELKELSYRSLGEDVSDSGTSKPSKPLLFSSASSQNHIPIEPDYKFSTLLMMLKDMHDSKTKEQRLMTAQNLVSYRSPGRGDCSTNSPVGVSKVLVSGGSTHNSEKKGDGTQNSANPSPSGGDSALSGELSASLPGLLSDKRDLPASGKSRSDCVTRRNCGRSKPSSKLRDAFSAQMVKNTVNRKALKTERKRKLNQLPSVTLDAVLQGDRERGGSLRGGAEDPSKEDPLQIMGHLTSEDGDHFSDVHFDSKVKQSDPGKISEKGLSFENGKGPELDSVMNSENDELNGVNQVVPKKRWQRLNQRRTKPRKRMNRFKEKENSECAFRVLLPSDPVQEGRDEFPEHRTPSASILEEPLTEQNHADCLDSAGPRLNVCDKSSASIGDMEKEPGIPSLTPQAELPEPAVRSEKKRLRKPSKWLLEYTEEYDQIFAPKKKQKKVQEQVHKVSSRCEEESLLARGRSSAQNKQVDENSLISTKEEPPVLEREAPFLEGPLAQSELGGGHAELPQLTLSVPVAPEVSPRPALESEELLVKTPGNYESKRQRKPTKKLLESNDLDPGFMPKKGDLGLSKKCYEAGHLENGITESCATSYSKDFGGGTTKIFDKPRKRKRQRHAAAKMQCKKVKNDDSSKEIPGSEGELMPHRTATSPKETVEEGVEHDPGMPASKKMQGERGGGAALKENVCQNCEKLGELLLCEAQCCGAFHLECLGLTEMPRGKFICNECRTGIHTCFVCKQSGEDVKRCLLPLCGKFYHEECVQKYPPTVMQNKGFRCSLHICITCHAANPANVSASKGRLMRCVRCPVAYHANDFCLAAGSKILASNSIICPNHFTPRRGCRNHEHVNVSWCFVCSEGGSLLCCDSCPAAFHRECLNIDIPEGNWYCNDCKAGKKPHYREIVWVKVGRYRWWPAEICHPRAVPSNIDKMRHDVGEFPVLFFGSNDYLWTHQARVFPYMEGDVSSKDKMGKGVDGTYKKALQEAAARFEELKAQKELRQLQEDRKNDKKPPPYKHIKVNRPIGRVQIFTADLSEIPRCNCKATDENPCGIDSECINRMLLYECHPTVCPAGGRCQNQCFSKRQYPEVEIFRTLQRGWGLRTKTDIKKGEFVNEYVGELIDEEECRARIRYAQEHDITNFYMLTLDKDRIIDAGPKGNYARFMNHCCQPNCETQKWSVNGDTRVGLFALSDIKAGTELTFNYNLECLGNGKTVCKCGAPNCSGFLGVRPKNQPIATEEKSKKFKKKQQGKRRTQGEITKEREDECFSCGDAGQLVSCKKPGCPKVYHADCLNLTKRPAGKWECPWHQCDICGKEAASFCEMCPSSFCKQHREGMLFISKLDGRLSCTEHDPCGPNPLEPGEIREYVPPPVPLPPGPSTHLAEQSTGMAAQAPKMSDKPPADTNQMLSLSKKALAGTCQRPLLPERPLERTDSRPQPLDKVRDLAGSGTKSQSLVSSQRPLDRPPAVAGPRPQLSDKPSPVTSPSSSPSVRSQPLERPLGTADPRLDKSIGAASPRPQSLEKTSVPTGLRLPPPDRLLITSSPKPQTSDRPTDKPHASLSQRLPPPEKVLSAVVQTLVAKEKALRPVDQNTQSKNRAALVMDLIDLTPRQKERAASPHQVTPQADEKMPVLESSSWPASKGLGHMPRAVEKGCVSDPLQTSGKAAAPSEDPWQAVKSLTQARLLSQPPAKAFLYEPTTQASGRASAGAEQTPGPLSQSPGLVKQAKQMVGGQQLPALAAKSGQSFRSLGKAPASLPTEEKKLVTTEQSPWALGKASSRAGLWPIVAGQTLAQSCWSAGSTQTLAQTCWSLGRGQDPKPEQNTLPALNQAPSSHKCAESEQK
UniProt Q96JJ3: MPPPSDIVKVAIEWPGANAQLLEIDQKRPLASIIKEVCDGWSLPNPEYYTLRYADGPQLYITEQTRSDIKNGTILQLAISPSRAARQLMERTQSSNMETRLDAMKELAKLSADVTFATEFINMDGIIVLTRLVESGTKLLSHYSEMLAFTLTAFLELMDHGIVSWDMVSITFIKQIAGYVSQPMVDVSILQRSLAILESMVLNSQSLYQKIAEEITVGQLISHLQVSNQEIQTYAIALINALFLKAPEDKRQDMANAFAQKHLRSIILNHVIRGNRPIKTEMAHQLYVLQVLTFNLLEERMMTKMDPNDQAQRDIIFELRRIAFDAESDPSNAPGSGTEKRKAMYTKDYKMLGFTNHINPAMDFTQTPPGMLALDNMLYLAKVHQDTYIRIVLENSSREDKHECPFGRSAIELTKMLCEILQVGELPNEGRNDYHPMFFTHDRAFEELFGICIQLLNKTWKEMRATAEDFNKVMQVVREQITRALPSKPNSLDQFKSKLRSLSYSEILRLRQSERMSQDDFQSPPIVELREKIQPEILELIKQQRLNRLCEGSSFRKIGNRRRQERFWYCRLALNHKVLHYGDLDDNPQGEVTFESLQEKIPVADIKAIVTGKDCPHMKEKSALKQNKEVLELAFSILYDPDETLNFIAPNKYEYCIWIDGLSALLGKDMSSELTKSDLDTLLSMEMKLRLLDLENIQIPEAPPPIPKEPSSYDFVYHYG
UniProt Q96H20: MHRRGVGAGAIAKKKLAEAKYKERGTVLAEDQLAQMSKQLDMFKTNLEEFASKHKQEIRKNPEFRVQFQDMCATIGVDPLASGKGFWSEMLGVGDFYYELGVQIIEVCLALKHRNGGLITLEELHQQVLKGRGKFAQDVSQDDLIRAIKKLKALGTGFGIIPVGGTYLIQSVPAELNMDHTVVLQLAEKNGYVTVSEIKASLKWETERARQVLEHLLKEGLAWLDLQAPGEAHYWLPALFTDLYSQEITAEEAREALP
UniProt Q96NG3: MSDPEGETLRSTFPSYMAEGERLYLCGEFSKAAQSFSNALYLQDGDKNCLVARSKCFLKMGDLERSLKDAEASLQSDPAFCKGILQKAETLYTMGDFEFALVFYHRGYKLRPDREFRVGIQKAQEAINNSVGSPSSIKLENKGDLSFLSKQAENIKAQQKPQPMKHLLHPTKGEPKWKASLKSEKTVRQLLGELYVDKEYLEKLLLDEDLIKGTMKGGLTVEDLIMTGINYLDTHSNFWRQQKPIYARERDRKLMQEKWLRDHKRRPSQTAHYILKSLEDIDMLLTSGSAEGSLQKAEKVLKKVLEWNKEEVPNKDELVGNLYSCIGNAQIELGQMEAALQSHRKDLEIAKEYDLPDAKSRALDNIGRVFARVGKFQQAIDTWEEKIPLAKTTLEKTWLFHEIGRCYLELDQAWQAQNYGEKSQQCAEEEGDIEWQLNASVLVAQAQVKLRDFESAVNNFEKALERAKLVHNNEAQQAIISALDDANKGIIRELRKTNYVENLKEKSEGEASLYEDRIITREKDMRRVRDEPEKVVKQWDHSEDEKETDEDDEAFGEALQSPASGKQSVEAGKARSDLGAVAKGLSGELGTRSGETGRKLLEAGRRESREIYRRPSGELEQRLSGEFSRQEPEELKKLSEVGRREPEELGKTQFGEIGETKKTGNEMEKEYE
UniProt Q96T21: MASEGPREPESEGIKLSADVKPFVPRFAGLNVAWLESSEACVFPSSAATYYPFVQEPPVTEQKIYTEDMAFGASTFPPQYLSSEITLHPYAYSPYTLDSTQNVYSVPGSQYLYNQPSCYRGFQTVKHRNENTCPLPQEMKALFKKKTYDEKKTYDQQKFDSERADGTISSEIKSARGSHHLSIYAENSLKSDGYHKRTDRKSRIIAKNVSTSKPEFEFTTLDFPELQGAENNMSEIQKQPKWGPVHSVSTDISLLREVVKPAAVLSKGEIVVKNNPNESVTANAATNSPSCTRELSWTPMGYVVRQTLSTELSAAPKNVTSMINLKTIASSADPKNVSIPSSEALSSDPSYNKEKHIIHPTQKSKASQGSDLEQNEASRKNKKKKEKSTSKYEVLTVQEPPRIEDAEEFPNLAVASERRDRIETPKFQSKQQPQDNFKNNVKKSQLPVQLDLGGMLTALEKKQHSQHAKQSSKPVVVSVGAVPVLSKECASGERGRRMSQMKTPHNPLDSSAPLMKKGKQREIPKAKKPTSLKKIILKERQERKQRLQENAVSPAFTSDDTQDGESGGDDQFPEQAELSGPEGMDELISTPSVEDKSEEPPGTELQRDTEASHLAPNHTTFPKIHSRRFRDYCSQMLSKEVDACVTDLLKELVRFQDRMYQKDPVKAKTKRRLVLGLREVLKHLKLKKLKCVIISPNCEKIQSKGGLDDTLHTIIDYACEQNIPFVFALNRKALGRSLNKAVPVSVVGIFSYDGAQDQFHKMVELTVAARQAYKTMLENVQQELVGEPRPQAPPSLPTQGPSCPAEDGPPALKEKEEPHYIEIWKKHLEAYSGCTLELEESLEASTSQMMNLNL
UniProt Q96J01: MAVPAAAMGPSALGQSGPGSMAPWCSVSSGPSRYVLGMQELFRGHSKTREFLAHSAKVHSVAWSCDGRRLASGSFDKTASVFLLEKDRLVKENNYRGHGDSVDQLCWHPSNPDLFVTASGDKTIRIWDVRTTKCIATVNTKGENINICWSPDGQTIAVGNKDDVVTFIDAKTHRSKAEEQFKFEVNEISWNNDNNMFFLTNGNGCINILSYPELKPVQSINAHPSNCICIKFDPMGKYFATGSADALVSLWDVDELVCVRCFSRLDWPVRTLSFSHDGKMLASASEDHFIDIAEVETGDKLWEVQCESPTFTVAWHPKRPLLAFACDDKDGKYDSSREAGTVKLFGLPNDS
UniProt Q96K58: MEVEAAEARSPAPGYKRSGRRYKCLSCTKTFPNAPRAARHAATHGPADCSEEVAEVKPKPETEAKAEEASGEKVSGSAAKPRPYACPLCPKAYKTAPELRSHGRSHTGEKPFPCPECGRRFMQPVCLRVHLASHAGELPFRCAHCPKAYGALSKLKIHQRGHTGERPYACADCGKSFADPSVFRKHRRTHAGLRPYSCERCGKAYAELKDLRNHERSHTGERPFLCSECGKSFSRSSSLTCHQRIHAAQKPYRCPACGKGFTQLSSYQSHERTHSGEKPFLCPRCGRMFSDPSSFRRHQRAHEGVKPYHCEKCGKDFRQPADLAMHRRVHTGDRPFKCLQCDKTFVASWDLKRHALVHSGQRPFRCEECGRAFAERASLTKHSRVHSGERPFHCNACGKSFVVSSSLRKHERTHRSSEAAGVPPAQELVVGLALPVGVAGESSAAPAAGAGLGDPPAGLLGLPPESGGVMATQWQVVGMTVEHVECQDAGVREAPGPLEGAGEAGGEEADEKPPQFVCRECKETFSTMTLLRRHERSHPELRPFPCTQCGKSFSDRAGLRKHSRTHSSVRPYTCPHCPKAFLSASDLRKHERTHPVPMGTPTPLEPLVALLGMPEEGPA
UniProt Q96PM9: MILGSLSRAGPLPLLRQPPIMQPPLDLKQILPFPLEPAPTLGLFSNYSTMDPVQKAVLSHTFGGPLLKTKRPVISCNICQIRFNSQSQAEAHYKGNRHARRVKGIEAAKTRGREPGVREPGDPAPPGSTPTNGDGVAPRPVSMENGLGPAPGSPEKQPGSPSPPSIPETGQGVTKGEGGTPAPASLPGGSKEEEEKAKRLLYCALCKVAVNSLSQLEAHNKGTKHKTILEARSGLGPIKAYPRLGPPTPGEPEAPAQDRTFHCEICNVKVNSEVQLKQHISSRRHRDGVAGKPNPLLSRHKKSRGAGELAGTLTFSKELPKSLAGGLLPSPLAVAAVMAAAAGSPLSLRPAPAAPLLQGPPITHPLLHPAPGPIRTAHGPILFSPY

Compound in this assay: CN[C@@H]1C[C@H]2O[C@@](C)([C@@H]1OC)n1c3ccccc3c3c4c(c5c6ccccc6n2c5c31)C(=O)NC4 [staurosporine]
The assay is described as follows: log2 fold change of tryptic peptide abundance, ligand vs vehicle (limited proteolysis) (log2 ratio); higher = more trypsin-susceptible (destabilized). To be noted: ligand concentration: 20 uM; sample: K562 cleared lysate; digestion: 4 min, 22 C (HT-PELSA RT4min, Orbitrap Astral).
Take “TP53RK (peptide sequence: FLSGLELVK, peptide start residue: 32) (UniProt Q96S44)”: the log2 fold change turned out to be 0.32.

As to “DEPDC7 (peptide sequence: FTTIPNQDSQLGKENK, peptide start residue: 134) (UniProt Q96QD5)”, the log2 fold change is -0.231.

As for “MAGI1 (peptide sequence: SSPHGEKR, peptide start residue: 1282) (UniProt Q96QZ7)”, the log2 fold change came to 1.04.

As for “NSD1 (peptide sequence: RNCGRSK, peptide start residue: 1019) (UniProt Q96L73)”, the log2 fold change came to 0.698.

Regarding “UniProt Q96K62 (peptide sequence: HLLAARPPGHPGAAHSR, peptide start residue: 155)”, the log2 fold change is 0.305.

With “TUBGCP6 (peptide sequence: LKEQFVK, peptide start residue: 709) (UniProt Q96RT7)”, the log2 fold change is -0.414.

“FAM111A (peptide sequence: KAESPEYVHMYTQR, peptide start residue: 505) (UniProt Q96PZ2)”: the log2 fold change came out at 0.563.

Consider “CNDP2 (peptide sequence: TGQEIPVNVR, peptide start residue: 150) (UniProt Q96KP4)”, for which the log2 fold change came to 0.553.

Consider “ELMO2 (peptide sequence: ALPSKPNSLDQFK, peptide start residue: 484) (UniProt Q96JJ3)”, for which the log2 fold change is -0.483.

Regarding “CDK5RAP2 (peptide sequence: SIETSSTLQSR, peptide start residue: 1608) (UniProt Q96SN8)”, the log2 fold change was -0.313.

Consider “MARK4 (peptide sequence: HSDFCGPSPAPLHPK, peptide start residue: 422) (UniProt Q96L34)”, for which the log2 fold change stood at 0.509.

Take “SNF8 (peptide sequence: GVGAGAIAKK, peptide start residue: 5) (UniProt Q96H20)”: the log2 fold change amounted to 0.326.

Regarding “UniProt Q96I51 (peptide sequence: KVVENEIYSESHR, peptide start residue: 209)”, the log2 fold change is -0.348.

For “UniProt Q96GS4 (peptide sequence: RTLEVLEALCK, peptide start residue: 347)”, the log2 fold change was -0.638.

For the target “NACC1 (peptide sequence: VLKAEDDAYTTFISETGK, peptide start residue: 481) (UniProt Q96RE7)”, the log2 fold change was found to be 0.373.

In the case of “FUBP3 (peptide sequence: SSGCFPNMAAK, peptide start residue: 457) (UniProt Q96I24)”, the log2 fold change is -0.153.

With “ARAP1 (peptide sequence: VVEDLINHYVVVFSVDEEELRK, peptide start residue: 1127) (UniProt Q96P48)”, the log2 fold change turned out to be 0.681.

“UniProt Q96TC7 (peptide sequence: AIALQPENPMAHFLLGR, peptide start residue: 355)”: the log2 fold change was -0.0717.

For “UniProt Q96NG3 (peptide sequence: SEGEASLYEDR, peptide start residue: 507)”, the log2 fold change was determined as 0.0184.

“SECISBP2 (peptide sequence: HIIHPTQK, peptide start residue: 356) (UniProt Q96T21)”: the log2 fold change came to 0.289.

In the case of “EGLN2 (peptide sequence: ATATSTTASPLR, peptide start residue: 66) (UniProt Q96KS0)”, the log2 fold change stood at 0.246.

On to “THOC3 (peptide sequence: VHSVAWSCDGRR, peptide start residue: 58) (UniProt Q96J01)”, for which the log2 fold change was -0.28.

“CYTH2 (peptide sequence: RKQELLVEIQR, peptide start residue: 25) (UniProt Q99418)”: the log2 fold change was 0.414.

Take “ZNF668 (peptide sequence: VHLASHAGELPFR, peptide start residue: 129) (UniProt Q96K58)”: the log2 fold change was -0.157.

For “CNOT6L (peptide sequence: YNECLMNFSCNGK, peptide start residue: 440) (UniProt Q96LI5)”, the log2 fold change is -0.177.

With “ZNF385A (peptide sequence: RPVISCNICQIR, peptide start residue: 71) (UniProt Q96PM9)”, the log2 fold change is -0.369.

For the target “ATXN7L3B (peptide sequence: DFGIQPVEDK, peptide start residue: 58) (UniProt Q96GX2)”, the log2 fold change was determined as 0.0241.

For “TONSL (peptide sequence: SGNVLEEAK, peptide start residue: 383) (UniProt Q96HA7)”, the log2 fold change is -0.381.

These data come from the supplement of paper PMC12819154, “High-throughput peptide-centric local stability assay extends protein–ligand identification to membrane proteins, tissues and bacteria” (Nature Structural & Molecular Biology, 2025).
